Experimental data reported in PubChem BioAssay AID2205 (University of Pittsburgh Molecular Library Screening Center, 2009).
Some of the results follow.

Test: microtubule stabilizers in HeLa cells, primary screen, imaging, high-content imaging (AID 2205);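 as to toxicity: 0% = mean cell density of plate MIN control wells and 100% = no cells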
Details: HeLa tubulin immunostaining HCS, 24 h, at 10 µM; % Hoechst-high responders: measured here: nuclear condensation Hoechst responders, stronger effect = higher value, share of cells brighter than vehicle mean+2SD; toxicity: measured here: cytotoxicity by cell density

SMILES | % Hoechst-high responders [%] | toxicity [%]
COc1ccc(OP(C)(=O)Nc2ccc(Br)cc2)cc1 (stereo not given) | 2.23 | 2.99
COc1ccc(C2=NCC(CBr)S2)cc1 (stereo not given) | 4.26 | 2.86
CCN(CC)CC(O)COC(=O)C(O)(c1ccccc1)C1CCCCC1 (stereo not given) | 2.03 | 5.32
CCc1nc2c(n1)c1c(non1O)c1c2no[n+]1[O-] | 4.13 | 2.09
O=[N+]([O-])c1cc([N+](=O)[O-])c(CCNc2ccccc2)c([N+](=O)[O-])c1 | 1.22 | 10.1
CCc1ccc(OP(C)(=O)Nc2cccnc2)cc1 (stereo not given) | 3.4 | 6.53
CP(=O)(Oc1ccccc1)N1CCOC1=O (stereo not given) | 0.982 | 2.07
Cc1ccc(NP(=O)(Oc2ccccc2)Oc2ccccc2)nc1 | 2.75 | 12.1
COc1ccccc1OP(C)(=O)Nc1c(C)n(C)n(-c2ccccc2)c1=O (stereo not given) | 1.41 | 0.441
O=[N+]([O-])c1cccc2n[nH]nc12 | 1.8 | 3.4
CC(=O)N1C2C3N(C(C)=O)C1C1N(C(C)=O)C(C(N1C(C)=O)N3C(C)=O)N2C(C)=O | 1.64 | 4.08
CP(=O)(Nc1ccc(Cl)cc1)Oc1ccc(F)cc1 (stereo not given) | 1.11 | 6.63
CCN(/C(=N/P(=O)(N1CCOCC1)N1CCOCC1)N1CCOCC1)c1ccc(OC)cc1 | 3.06 | 0.393
CC(C)(C)c1ccc(OP(C)(=O)O)cc1 | 2.71 | 7.54
COc1ccccc1OP(C)(=O)Nc1ccccc1Br (stereo not given) | 1.82 | 1.67
CC1CCN(C(=O)Oc2c(Cl)cc(Cl)c3cccnc23)CC1 | 1.97 | 8.05
CN(C)C(=O)OCCc1n(C)cc[n+]1C | 2.26 | 3.45
CN(C)C(=O)c1c([N+](=O)[O-])cc([N+](=O)[O-])cc1[N+](=O)[O-] | 4.02 | 3.21
CC(C)=N/N=C(\N)N[N+](=O)[O-] | 2.05 | 13.5
CP(=O)(OC12CC3CC(CC(C3)C1)C2)OC12CC3CC(CC(C3)C1)C2 | 1.84 | 6.82
CCOC(=O)c1ccc(NP(C)(=O)Oc2ccc(Cl)cc2)cc1 (stereo not given) | 3.2 | 10.8
O=[N+]([O-])c1ncn(CCn2ncnc2[N+](=O)[O-])n1 | 0.901 | 3.1
Cc1cc(C)cc(OP(C)(=O)Nc2cccc(C(F)(F)F)c2)c1 (stereo not given) | 1.85 | 0.2
COc1ccc(OP(C)(=O)Nc2ccccc2Br)cc1 (stereo not given) | 3.01 | 7.2
COc1ccccc1OP(C)(=O)Nc1ccc(C)c(C)c1 (stereo not given) | 2.75 | 5.73

SMILES | % Hoechst-high responders [%] | toxicity [%]
CCOP(=O)(Nc1ccccc1)OCC | 3.39 | 6.79
Cc1cc(SC(NC(=O)c2ccc(F)cc2)C(Cl)(Cl)Cl)ncn1 (stereo not given) | 1.18 | 5.56
Cc1nc2ccc3ccccc3c2o1.O=[N+]([O-])c1cc([N+](=O)[O-])c(O)c([N+](=O)[O-])c1 | 2.19 | 0.834
CP(=O)(OCCOc1ccccc1)OCCOc1ccccc1 | 2.85 | 8.04
CP(=O)(Nc1ccc(Cl)cc1Cl)Oc1ccccc1 (stereo not given) | 1.51 | 7.03
CCN(N=Nc1nonc1N)c1nonc1N | 2.3 | 1.22
Cc1ccc(N/C(=N/P(=O)(N2CCOCC2)N2CCOCC2)N2CCOCC2)cc1 | 2.02 | 9.89
NC(=O)c1cc([N+](=O)[O-])cc([N+](=O)[O-])c1N | 1.79 | 8.05
Clc1ccc(Cl)c(NC2=NCC(CBr)S2)c1 (stereo not given) | 1.2 | 4.62
CN(C)CCOC(=O)C(O)(c1ccccc1)C1CCCC1 (stereo not given) | 0.403 | 5.87
CN1CCCC(OC(=O)C(c2ccccc2)c2ccccc2)C1 (stereo not given) | 0.76 | 22.6
COc1ccc(OP(C)(=O)Nc2ccccn2)cc1 (stereo not given) | 1.8 | 19.1
COc1ccccc1OP(=O)(Nc1ccc(C)cn1)Oc1ccccc1OC | 1.05 | 10.7
Cc1c2non([O-])c-2c(C)[n+](=O)[n+]1[O-] | 1.93 | 7.48
O=C(NC(Sc1ccncn1)C(Cl)(Cl)Cl)c1ccccc1 (stereo not given) | 1.2 | 3.32
Oc1ccccc1CNc1ccccn1 | 1.24 | 7.55
CC(C)CC(=O)NC(Sc1ccc(Cl)cc1)C(Cl)(Cl)Cl (stereo not given) | 1.67 | 5.38
O=[N+]([O-])c1cc([N+](=O)[O-])c(Nc2ccccn2)c([N+](=O)[O-])c1 | 2.17 | 0.161
Cc1c(NP(C)(=O)Oc2ccc(C(C)C)cc2)c(=O)n(-c2ccccc2)n1C (stereo not given) | 2.01 | 1.83
CCc1ccc(OP(C)(=O)O)cc1 | 2.07 | 8.5
COc1ccccc1OP(C)(=O)Nc1ccc(C)cc1C (stereo not given) | 1.5 | 6.98
CP(=O)(Nc1ccccn1)Oc1ccccc1 (stereo not given) | 2.23 | 15.2
CCOc1ccc(C2=NCC(CBr)S2)cc1 (stereo not given) | 7.35 | 54.2
O=P1(Nc2nc3ccc(Cl)cc3s2)COc2ccccc2O1 (stereo not given) | 1.47 | 12
CC(C)c1ccc(OP(C)(=O)Nc2ccc(SC(F)(F)F)cc2)cc1 (stereo not given) | 3.15 | 12.5

SMILES | % Hoechst-high responders [%] | toxicity [%]
CC(C)(C)C(=O)NC(Sc1ccccc1)C(Cl)(Cl)Cl (stereo not given) | 1.7 | 3
CP(=O)(Nc1ccccc1F)Oc1ccccc1 (stereo not given) | 2.16 | 11.4
O=C(OCCN1CCN(CCOCc2ccccc2)CC1)C(O)(c1ccccc1)c1ccccc1 | 2.79 | 12.5
CC(=O)Nc1ccc(Oc2c([N+](=O)[O-])cc([N+](=O)[O-])cc2[N+](=O)[O-])cc1 | 1.47 | 8.66
CCOC(=O)NC(Sc1ccccc1)C(Cl)(Cl)Cl (stereo not given) | 1.77 | 8.69
c1ccc(-c2nn[nH]n2)c(-c2nn[nH]n2)c1 | 1.69 | 13.1
CCNC(=S)/N=C(\N)N[N+](=O)[O-] | 2.46 | 6.65
O=C(NC1CCS(=O)(=O)C1)NP(=S)(Oc1ccccc1)Oc1ccccc1 (stereo not given) | 2 | 4.87
COc1ccc(OP(C)(=O)Nc2ccc(SC(F)(F)F)cc2)cc1 (stereo not given) | 2.5 | 7.04
CCOC(=O)c1ccc(NP(C)(=O)Oc2ccc(F)cc2)cc1 (stereo not given) | 1.51 | 8.15
CCN(CC)CCCOC(=O)C(O)(c1ccccc1)C1CCCCC1 (stereo not given) | 2.18 | 8.02
CCC(=O)N1C2C3N(C(=O)CC)C1C1N(C(=O)CC)C(C(N1C(=O)CC)N3C(=O)CC)N2C(=O)CC | 1.41 | 4.2
Cc1ccc(OP(=O)(Nc2ccccn2)Oc2ccc(C)cc2)cc1 | 2.98 | 4.93
CC(=O)NC(SC(=S)N(CC(C)C)CC(C)C)C(Cl)(Cl)Cl (stereo not given) | 3.61 | 0.595
COC(=O)c1cc2c(s1)N=C(c1ccccc1)N(C)P2(=O)N1CCOCC1 (stereo not given) | 3.52 | 4.17
O=c1c2cc([N+](=O)[O-])ccc2[nH]c2c([N+](=O)[O-])cc([N+](=O)[O-])cc12 | 5.86 | 20.9
CP(=O)(Nc1ccccc1)Oc1ccc(F)cc1 (stereo not given) | 1.66 | 5.44
O=P(Nc1ccccn1)(c1ccc(Br)cc1)c1ccc(Br)cc1 | 2.53 | 7.53
COc1ccc(OP(C)(=O)Nc2cccc(Br)c2)cc1 (stereo not given) | 2.12 | 5.48
COc1ccc(NP(C)(=O)Oc2ccccc2OC)cc1 (stereo not given) | 1.4 | 4.13
CN(C)CCOC(=O)C(O)(c1ccccc1)C1CCCCC1 (stereo not given) | 2.68 | 11.5
O=[N+]([O-])c1cc([N+](=O)[O-])c(NCC2CCS(=O)(=O)C2)c([N+](=O)[O-])c1 (stereo not given) | 2.91 | 1.07
CC(=O)NC(SC(=S)N(C)C)C(Cl)(Cl)Cl (stereo not given) | 2.96 | 8.21
O=C(OC1CN2CCC1CC2)c1cccc(Cl)c1 (stereo not given) | 2.27 | 5.29
C(Cc1nn[nH]n1)Cc1nn[nH]n1 | 2.94 | 7.44

SMILES | % Hoechst-high responders [%] | toxicity [%]
CC(C)C(=O)NC(Sc1ccccc1)C(Cl)(Cl)Cl (stereo not given) | 3.41 | 6.34
O=P(Nc1nccs1)(c1ccccc1)c1ccccc1 | 2.41 | 30.5
c1nnnn1CCn1cnnn1 | 2.01 | 14.8
CCOP(C)(=S)SCC(=O)NC(C)(CC)C(=O)O (stereo not given) | 1.27 | 9.1
CP(=O)(Nc1ccc2c(c1)OCCO2)Oc1ccccc1 (stereo not given) | 1.39 | 0.771
Cc1ccccc1NP(C)(=O)Nc1ccccc1C | 1.19 | 7.06
O=[N+]([O-])c1cc([N+](=O)[O-])c(-n2nnc3ccccc32)c([N+](=O)[O-])c1 | 2.81 | 8.48
O=P1(Nc2ccccn2)COc2ccccc2OC1 | 3.26 | 8.17
Clc1n[nH]nc1-c1nn[nH][15n]1 | 3.06 | 5.68
CC(C)/C=N\N=C(\N)N[N+](=O)[O-] | 2.49 | 1.41
Cc1nc2ccc3ccccc3c2s1.O=[N+]([O-])c1cc([N+](=O)[O-])c(O)c([N+](=O)[O-])c1 | 2.37 | 1.66
CC1(CBr)Cn2c(nc3ccccc3c2=O)S1 (stereo not given) | 1.79 | 0.607
CC1CCC(C(C)C)C(OP(=O)(Nc2ccccn2)c2ccccc2)C1 (stereo not given) | 1.38 | 11.1
Cc1nn(-c2ccccc2)c2c1P(=O)(N1CCOCC1)N(C)C(c1ccccc1)=N2 (stereo not given) | 2.19 | 3.85
COc1cc(C2NCCC3(OCCO3)C2(C)C)cc(OC)c1OC.O=[N+]([O-])c1cc([N+](=O)[O-])c(O)c([N+](=O)[O-])c1 (stereo not given) | 2.56 | 6.46
CN(C)C1(CNC(=O)c2ccc(S(C)(=O)=O)cc2)CCCCC1 | 2.33 | 2.47
O=P1(Nc2ncccn2)COc2ccccc2OC1 | 3.26 | 12.8
COc1ccccc1OP(C)(=O)Nc1c(C)cccc1C (stereo not given) | 1.21 | 12.2
CN1CCCCC1COC(=O)C1(O)c2ccccc2CCc2ccccc21 (stereo not given) | 2.19 | 7.41
CP(=O)(Nc1ccc(SC(F)(F)F)cc1)Oc1ccccc1 (stereo not given) | 1.53 | 2.05
CCCOc1ccc(NP(C)(=O)Oc2ccc(Cl)cc2)cc1 (stereo not given) | 2.62 | 14.6
O=P1(Nc2ccc(Br)cn2)COc2ccccc2OC1 | 1.93 | 4.63
Cc1ccc(OCC(=O)OC2CN3CCC2CC3)cc1 (stereo not given) | 1.94 | 4.24
O=P(Nc1nccs1)(c1ccccc1)c1nc2ccccc2s1 (stereo not given) | 1.88 | 3.58
O=P(Nc1nccs1)(Oc1ccccc1)Oc1ccccc1 | 2.45 | 6.32
